Measured values as given in patent US20100022401A1, “Avidin-like proteins from symbiotic bacteria” (LICENTIA OY, priority 2004, published 2010).

B1: Bradavidin: full length wild-type (138 amino acid residues, SEQ ID NO:1) avidin-like biotin-binding protein from Bradyrhizobium japonicum (protein, listed as Bradyrhizobium japonicum)
chain: QSVNWTWTNQYGSTLAITSFNSNTGAITGTYTNNAANSCDEGKPQGVTGWLAYGNTGTAISFSVNFLGCGSTTVWTGQLNNATGFQGLWYLSLAEAVAWNGISAGADTFTFSSGDKALLTKSGVDLKAGSEKLSNTKK
B2: Avidin: chicken avidin (SEQ ID NO:6), glycosylated biotin-binding protein (protein)
chain: NSARSTPGCPPAAEMVHATSPLLLLLLLSLALVAPGLSARKCSLTGKWTNDLGSNMTIGAVNSRGEFTGTYITAVTATSNEIKESPLHGTQNTINKRTQPTFGFTVNWKFSESTTVFTGQCFIDRNGKEVLKTMWLLRS

Test system: human serum antibodies elicited toward avidin and streptavidin
Experiment: ELISA immunological cross-reactivity with sera of cancer patients exposed to avidin and streptavidin
Assay type: binding
Conditions: diluted 1:100

Row | Molecule | Recognition by patient sera (ELISA, absorbance at 405 nm)
1 | B1 | None of the patient sera showed a significant response
2 | B2 | recognised
